Results published in the supplement of paper PMC10849652.
Some of the results follow.

Protein sequences, listed by entry. Tags and fused reporters are not part of them. Lines headed by an entry give the natural chain unless they say otherwise; changes in a name come on top.
UniProt Q6ZN28: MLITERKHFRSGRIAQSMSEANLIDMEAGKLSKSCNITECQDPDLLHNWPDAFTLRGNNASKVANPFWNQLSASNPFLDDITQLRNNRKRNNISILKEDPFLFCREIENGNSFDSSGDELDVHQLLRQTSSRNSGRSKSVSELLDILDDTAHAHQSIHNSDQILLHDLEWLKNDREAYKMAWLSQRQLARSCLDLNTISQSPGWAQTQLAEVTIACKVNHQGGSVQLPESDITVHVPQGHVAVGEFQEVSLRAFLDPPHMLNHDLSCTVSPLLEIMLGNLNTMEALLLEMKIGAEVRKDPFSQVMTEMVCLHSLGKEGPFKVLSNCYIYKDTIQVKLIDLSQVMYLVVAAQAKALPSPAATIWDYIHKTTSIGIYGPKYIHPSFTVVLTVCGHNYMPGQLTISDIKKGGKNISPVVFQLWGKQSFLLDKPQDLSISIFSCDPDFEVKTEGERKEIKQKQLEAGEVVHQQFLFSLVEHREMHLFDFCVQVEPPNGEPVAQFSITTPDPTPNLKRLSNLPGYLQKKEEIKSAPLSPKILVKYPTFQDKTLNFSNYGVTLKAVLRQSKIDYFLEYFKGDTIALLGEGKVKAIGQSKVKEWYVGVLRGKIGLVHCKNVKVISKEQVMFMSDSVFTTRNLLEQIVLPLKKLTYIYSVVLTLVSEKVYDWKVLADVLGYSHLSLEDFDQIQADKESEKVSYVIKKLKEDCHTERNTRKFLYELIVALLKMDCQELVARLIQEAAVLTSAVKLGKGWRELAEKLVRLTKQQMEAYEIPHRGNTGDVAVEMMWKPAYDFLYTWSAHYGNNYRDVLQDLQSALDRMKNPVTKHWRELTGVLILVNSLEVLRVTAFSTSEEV
UniProt O14733: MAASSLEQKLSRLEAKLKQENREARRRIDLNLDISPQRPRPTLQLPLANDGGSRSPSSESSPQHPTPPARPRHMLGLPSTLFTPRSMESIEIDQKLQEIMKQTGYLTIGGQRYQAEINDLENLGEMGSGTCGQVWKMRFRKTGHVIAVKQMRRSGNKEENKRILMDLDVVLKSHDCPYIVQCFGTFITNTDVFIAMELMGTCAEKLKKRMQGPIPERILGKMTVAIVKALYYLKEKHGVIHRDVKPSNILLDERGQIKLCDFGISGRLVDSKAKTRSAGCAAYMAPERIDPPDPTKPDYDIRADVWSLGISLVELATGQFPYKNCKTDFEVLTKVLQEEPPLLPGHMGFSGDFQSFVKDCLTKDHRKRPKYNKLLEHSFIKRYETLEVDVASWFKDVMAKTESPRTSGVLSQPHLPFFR
UniProt P45985: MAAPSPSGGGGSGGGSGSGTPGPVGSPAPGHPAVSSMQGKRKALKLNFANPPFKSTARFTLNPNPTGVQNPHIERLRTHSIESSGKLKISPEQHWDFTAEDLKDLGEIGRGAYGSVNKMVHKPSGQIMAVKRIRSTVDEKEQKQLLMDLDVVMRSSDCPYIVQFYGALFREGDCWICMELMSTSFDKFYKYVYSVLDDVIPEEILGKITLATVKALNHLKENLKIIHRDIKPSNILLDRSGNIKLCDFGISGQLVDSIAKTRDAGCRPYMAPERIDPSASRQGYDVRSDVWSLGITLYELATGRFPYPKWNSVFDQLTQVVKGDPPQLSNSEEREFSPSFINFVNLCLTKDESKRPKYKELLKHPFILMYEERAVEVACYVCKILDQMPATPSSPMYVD
UniProt Q15759, whole entry, looked up: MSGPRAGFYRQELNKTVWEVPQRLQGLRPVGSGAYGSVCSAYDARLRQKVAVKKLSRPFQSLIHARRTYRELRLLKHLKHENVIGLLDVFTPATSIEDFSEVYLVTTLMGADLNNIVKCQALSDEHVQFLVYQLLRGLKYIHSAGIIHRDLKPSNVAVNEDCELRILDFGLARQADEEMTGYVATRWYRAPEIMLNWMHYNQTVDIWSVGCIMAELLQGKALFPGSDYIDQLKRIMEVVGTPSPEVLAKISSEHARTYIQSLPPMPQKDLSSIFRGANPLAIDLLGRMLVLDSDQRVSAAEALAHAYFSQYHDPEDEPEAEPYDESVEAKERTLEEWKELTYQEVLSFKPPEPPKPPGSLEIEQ
UniProt Q5TCQ9: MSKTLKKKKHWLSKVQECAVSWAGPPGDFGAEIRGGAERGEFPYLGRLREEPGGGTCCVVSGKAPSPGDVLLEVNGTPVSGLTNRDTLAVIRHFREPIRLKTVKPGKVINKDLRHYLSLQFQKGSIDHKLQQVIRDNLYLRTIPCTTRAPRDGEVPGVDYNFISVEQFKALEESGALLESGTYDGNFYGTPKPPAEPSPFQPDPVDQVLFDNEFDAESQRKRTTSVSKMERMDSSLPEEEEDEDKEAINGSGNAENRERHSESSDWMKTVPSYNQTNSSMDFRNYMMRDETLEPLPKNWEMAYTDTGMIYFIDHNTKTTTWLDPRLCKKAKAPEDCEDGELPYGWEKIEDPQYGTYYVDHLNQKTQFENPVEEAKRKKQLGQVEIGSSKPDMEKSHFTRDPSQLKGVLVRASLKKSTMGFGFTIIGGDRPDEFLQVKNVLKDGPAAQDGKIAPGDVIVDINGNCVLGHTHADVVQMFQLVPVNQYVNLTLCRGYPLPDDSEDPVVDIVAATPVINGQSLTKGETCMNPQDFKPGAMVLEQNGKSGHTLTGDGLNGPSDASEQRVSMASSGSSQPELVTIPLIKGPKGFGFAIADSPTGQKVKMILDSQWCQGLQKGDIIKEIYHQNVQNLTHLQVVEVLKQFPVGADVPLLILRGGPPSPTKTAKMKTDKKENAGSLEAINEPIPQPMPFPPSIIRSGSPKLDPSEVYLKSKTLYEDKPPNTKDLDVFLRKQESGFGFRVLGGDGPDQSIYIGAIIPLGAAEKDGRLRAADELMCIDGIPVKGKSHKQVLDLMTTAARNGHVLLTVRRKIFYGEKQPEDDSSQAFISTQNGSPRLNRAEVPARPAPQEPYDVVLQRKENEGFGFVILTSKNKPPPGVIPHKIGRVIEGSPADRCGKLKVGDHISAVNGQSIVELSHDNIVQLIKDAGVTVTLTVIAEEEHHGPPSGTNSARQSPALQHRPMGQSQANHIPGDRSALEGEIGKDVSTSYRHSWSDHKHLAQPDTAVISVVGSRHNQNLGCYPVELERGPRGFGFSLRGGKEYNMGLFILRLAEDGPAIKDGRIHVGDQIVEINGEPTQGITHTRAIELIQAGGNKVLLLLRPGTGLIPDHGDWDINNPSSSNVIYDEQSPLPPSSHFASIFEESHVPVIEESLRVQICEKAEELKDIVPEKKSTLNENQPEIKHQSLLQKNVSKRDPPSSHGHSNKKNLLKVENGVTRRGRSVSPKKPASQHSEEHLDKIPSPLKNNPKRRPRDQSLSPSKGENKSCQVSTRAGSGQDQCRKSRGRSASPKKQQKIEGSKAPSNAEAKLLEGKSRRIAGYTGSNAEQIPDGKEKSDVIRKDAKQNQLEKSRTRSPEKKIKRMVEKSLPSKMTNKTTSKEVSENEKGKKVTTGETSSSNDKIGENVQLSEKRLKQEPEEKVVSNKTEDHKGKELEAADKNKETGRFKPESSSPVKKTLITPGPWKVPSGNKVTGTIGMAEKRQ
UniProt Q16539, whole entry, looked up: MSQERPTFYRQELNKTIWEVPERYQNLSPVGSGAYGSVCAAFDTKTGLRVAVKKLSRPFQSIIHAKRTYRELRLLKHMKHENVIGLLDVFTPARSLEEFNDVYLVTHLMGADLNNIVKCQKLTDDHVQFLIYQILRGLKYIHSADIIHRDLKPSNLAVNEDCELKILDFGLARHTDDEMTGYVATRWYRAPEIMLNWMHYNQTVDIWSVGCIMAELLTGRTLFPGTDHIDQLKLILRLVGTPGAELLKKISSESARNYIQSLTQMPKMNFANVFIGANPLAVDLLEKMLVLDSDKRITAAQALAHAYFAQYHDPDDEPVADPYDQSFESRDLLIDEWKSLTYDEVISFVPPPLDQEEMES
UniProt Q9Y4K4: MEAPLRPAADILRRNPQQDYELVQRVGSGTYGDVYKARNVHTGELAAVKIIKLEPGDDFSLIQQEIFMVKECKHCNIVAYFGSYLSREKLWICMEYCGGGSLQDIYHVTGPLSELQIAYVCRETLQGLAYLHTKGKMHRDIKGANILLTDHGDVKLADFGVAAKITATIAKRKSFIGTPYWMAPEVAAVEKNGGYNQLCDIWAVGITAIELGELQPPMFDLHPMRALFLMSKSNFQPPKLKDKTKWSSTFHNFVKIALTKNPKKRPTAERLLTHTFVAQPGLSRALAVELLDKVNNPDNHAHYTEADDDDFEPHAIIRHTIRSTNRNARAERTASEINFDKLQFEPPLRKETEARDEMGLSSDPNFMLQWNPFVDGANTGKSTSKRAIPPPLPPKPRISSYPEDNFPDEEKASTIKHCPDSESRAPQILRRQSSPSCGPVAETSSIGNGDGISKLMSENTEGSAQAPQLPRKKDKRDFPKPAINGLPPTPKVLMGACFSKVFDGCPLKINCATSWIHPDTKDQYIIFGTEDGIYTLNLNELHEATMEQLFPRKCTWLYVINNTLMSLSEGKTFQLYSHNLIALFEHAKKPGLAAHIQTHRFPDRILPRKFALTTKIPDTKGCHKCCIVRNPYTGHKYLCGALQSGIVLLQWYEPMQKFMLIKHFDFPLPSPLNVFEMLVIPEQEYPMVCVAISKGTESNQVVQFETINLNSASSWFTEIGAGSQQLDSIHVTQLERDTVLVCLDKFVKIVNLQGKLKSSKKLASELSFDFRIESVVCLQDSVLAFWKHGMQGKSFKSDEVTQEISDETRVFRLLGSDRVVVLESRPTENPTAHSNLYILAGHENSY
UniProt O15479: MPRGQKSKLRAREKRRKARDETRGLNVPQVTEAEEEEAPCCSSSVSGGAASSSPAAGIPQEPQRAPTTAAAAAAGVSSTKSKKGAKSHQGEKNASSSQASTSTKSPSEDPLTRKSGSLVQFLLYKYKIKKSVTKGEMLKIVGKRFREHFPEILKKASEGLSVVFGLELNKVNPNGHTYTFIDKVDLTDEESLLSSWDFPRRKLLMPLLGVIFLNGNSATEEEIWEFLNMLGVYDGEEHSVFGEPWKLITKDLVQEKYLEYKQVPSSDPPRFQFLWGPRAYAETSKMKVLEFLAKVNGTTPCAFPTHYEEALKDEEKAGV
UniProt Q9UPY8, whole entry, looked up: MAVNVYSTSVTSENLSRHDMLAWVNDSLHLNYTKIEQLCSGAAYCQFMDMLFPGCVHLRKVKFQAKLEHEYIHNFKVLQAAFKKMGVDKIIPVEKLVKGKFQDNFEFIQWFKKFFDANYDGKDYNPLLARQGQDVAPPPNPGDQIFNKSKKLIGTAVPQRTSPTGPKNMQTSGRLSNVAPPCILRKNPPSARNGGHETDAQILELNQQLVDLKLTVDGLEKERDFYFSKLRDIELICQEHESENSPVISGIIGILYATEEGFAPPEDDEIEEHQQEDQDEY
UniProt P27816: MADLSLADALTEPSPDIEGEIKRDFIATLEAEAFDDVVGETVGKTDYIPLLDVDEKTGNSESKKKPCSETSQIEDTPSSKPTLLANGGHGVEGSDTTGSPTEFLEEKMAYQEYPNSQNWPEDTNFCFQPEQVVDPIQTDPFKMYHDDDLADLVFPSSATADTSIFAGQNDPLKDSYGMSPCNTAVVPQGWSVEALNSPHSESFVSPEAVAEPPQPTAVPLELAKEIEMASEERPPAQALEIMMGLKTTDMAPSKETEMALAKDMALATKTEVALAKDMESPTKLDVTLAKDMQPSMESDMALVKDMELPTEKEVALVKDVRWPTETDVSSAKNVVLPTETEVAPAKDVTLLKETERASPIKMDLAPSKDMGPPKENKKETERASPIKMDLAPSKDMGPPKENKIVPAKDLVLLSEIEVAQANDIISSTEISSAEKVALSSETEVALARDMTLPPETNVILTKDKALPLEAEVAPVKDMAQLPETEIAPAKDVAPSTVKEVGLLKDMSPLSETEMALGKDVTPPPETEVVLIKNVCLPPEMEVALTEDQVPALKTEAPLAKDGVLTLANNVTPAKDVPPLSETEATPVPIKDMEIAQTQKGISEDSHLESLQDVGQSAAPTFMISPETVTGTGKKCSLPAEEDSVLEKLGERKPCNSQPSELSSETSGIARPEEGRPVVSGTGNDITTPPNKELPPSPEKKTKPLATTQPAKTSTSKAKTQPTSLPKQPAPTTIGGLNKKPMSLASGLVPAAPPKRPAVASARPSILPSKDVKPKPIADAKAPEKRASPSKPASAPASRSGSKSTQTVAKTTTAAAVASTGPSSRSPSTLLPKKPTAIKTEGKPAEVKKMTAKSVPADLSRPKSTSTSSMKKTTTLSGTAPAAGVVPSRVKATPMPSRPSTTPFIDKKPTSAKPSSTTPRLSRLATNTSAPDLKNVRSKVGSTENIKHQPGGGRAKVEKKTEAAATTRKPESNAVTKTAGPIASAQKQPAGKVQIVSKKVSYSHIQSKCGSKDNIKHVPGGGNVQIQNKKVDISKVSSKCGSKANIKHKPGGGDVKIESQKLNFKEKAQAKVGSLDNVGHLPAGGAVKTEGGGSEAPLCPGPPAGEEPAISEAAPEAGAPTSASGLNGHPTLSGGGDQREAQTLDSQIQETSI

Experiments:
Assay in all cases: log2 fold change, soluble protein after heating vs DMSO (PISA); higher = thermal stabilisation; K562 lysate, 10 uM; active = over 0.2 and 3.5 SD of the protein, either way, in both replicates (recomputed)
lapatinib = compound: CS(=O)(=O)CCNCc1ccc(-c2ccc3ncnc(Nc4ccc(OCc5cccc(F)c5)c(Cl)c4)c3c2)o1 [lapatinib]
Summary of the method: (§1)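 A 30 min treatment with 10 μM compound was applied to crude K562 extract at 1 mg/mL protein in PBS pH 7.4 with 1 mM MgCl2. Heating for 3 min spanned 48°C-58°C, after which aliquots were pooled, adjusted to 0.5% NP-40 at 4°C and spun at 21,000xg for 90 min. TMTpro 16plex LC-MS/MS of the supernatant, with channel sums equalised, gave values recorded as log-two fold change in thermal stability against solvent controls, from duplicates.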

pictilisib = compound: CS(=O)(=O)N1CCN(Cc2cc3nc(-c4cccc5[nH]ncc45)nc(N4CCOCC4)c3s2)CC1 [pictilisib]
Summary of the method: as §1

crizotinib = compound: C[C@@H](Oc1cc(-c2cnn(C3CCNCC3)c2)cnc1N)c1c(Cl)ccc(F)c1Cl [crizotinib]
Summary of the method: as §1

[1] = compound: C[C@H](C1=CC=C(C=C1)C(=O)NC2=C3C=CNC3=NC=C2)N
Summary of the method: as §1

duvelisib = compound: C[C@H](Nc1ncnc2nc[nH]c12)c1cc2cccc(Cl)c2c(=O)n1-c1ccccc1 [duvelisib]
Summary of the method: as §1

gandotinib = compound: Cc1cc(Nc2cc(CN3CCOCC3)c3nc(C)c(Cc4ccc(Cl)cc4F)n3n2)n[nH]1 [gandotinib]
Summary of the method: as §1

tozasertib = compound: Cc1cc(Nc2cc(N3CCN(C)CC3)nc(Sc3ccc(NC(=O)C4CC4)cc3)n2)n[nH]1 [tozasertib]
Summary of the method: as §1

doramapimod = compound: Cc1ccc(-n2nc(C(C)(C)C)cc2NC(=O)Nc2ccc(OCCN3CCOCC3)c3ccccc23)cc1 [doramapimod]
Summary of the method: as §1

bafetinib = compound: Cc1ccc(NC(=O)c2ccc(CN3CC[C@H](N(C)C)C3)c(C(F)(F)F)c2)cc1Nc1nccc(-c2cncnc2)n1 [bafetinib]
Summary of the method: as §1

[2] = compound: Cc1cccc(CC(=O)N2CCc3c2ccc(-c2cn(C)c4ncnc(N)c24)c3F)n1
Summary of the method: as §1

nilotinib = compound: Cc1cn(-c2cc(NC(=O)c3ccc(C)c(Nc4nccc(-c5cccnc5)n4)c3)cc(C(F)(F)F)c2)cn1 [nilotinib]
Summary of the method: as §1

[3] = compound: Cc1nc(Nc2n[nH]c3c2CN(C(=O)N[C@H](CN(C)C)c2ccccc2)C3(C)C)c2sccc2n1
Summary of the method: as §1

dasatinib = compound: Cc1nc(Nc2ncc(C(=O)Nc3c(C)cccc3Cl)s2)cc(N2CCN(CCO)CC2)n1 [dasatinib]
Summary of the method: as §1

[4] = compound: Cc1ncc(-c2ccnc(Nc3ccc(S(C)(=O)=O)cc3)n2)n1C(C)C
Summary of the method: as §1

[5] = compound: Cn1cc(-c2ccc3c(c2)CCN3C(=O)Cc2cccc(C(F)(F)F)c2)c2c(N)ncnc21
Summary of the method: as §1

quisinostat = compound: Cn1cc(CNCC2CCN(c3ncc(C(=O)NO)cn3)CC2)c2ccccc21 [quisinostat]
Summary of the method: as §1

tipifarnib = compound: Cn1cncc1[C@@](N)(c1ccc(Cl)cc1)c1ccc2c(c1)c(-c1cccc(Cl)c1)cc(=O)n2C [tipifarnib]
Summary of the method: as §1

[6] = compound: NC(=O)Nc1cc(-c2cccc(F)c2)sc1C(=O)N[C@H]1CCCNC1
Summary of the method: as §1

[7] = compound: NC(=O)c1cnc(N[C@@H]2CCCC[C@@H]2N)nc1Nc1cccc(-n2nccn2)c1
Summary of the method: as §1

[8] = compound: NC1(c2ccc(-c3nc4ccn5c(=O)[nH]nc5c4cc3-c3ccccc3)cc2)CCC1
Summary of the method: as §1

Row | Target | log2 fold change (lapatinib) | log2 fold change (pictilisib) | log2 fold change (crizotinib) | log2 fold change [1] | log2 fold change (duvelisib) | log2 fold change (gandotinib) | log2 fold change (tozasertib) | log2 fold change (doramapimod) | log2 fold change (bafetinib) | log2 fold change [2] | log2 fold change (nilotinib) | log2 fold change [3] | log2 fold change (dasatinib) | log2 fold change [4] | log2 fold change [5] | log2 fold change (quisinostat) | log2 fold change (tipifarnib) | log2 fold change [6] | log2 fold change [7] | log2 fold change [8]
1 | MALSU1 (UniProt Q96EH3) | inactive: 0.048 | inactive: 0.092 | inactive: 0.006 | inactive: -0.065 | inactive: 0.034 | inactive: 0.053 | inactive: 0.049 | inactive: -0.013 | inactive: -0.087 | inactive: 0.09 | inactive: -0.023 | inactive: 0.008 | inactive: -0.052 | inactive: 0.013 | inactive: -0.018 | inactive: -0.052 | inactive: 0.022 | inactive: 0 | inactive: 0.003 | inactive: 0.005
2 | MACC1 (UniProt Q6ZN28) | inactive: -0.041 | inactive: -0.094 | inactive: -0.067 | inactive: 0.034 | inactive: 0.003 | inactive: -0.031 | inactive: -0.049 | inactive: 0.072 | inactive: -0.153 | inactive: 0.053 | inactive: -0.014 | inactive: -0.074 | inactive: -0.073 | inactive: 0.005 | inactive: 0.057 | inactive: -0.045 | inactive: -0.016 | inactive: 0.032 | inactive: -0.043 | inactive: 0.02
3 | MAP2K7 isoform 4 (UniProt O14733) | inactive: 0.004 | inactive: 0.204 | inactive: -0.05 | inactive: 0.081 | inactive: -0.048 | inactive: -0.042 | inactive: -0.04 | inactive: 0.052 | inactive: -0.06 | inactive: 0.002 | inactive: 0.017 | inactive: -0.101 | inactive: -0.093 | inactive: 0 | inactive: 0.22 | inactive: 0.001 | inactive: -0.024 | inactive: 0.033 | inactive: 0.001 | inactive: 0.002
4 | MAP2K4 isoform 2 (UniProt P45985) | inactive: -0.036 | inactive: -0.077 | inactive: -0.086 | active: 0.619 | inactive: -0.012 | inactive: -0.031 | inactive: -0.087 | inactive: -0.032 | inactive: -0.05 | inactive: -0.059 | inactive: -0.013 | inactive: 0.052 | inactive: -0.014 | inactive: 0.248 | inactive: 0.046 | inactive: -0.112 | inactive: -0.023 | inactive: 0.019 | inactive: 0.063 | inactive: 0
5 | MAPK11 (UniProt Q15759) | inactive: 0.072 | inactive: -0.094 | inactive: -0.093 | – | – | – | – | – | inactive: 0.27 | – | inactive: 0.611 | inactive: -0.026 | – | inactive: 0.321 | – | inactive: -0.096 | inactive: -0.125 | inactive: -0.24 | inactive: 0.147 | inactive: -0.091
6 | MAP3K5 (UniProt Q99683) | inactive: -0.059 | inactive: 0.112 | inactive: -0.415 | inactive: 0.072 | – | inactive: 0.065 | inactive: 0.055 | inactive: -0.003 | inactive: -0.087 | inactive: 0.147 | inactive: -0.14 | inactive: -0.134 | – | inactive: 0.065 | – | inactive: 0 | inactive: 0.2 | inactive: 0.367 | inactive: -0.091 | –
7 | LTBR (UniProt P36941) | inactive: 0.034 | inactive: -0.169 | inactive: -0.141 | inactive: -0.177 | – | inactive: 0.097 | – | inactive: -0.185 | inactive: -0.006 | inactive: 0.103 | – | – | – | – | – | inactive: 0.06 | – | inactive: 0.016 | inactive: 0.086 | inactive: -0.002
8 | MAGI3 isoform 1 (UniProt Q5TCQ9) | inactive: -0.041 | inactive: 0.006 | – | inactive: -0.029 | inactive: 0.128 | inactive: -0.119 | inactive: -0.001 | – | inactive: 0 | inactive: 0.07 | inactive: -0.212 | inactive: -0.128 | inactive: 0.012 | inactive: 0.081 | inactive: 0.02 | – | inactive: 0 | – | inactive: 0.018 | inactive: 0.052
9 | MAPK14 (UniProt Q16539) | inactive: -0.047 | inactive: -0.004 | inactive: -0.094 | inactive: -0.034 | inactive: -0.026 | inactive: -0.037 | inactive: 0.009 | – | active: 1.03 | inactive: 0.015 | inactive: 0.563 | inactive: 0.038 | active: 0.984 | inactive: 0.069 | inactive: -0.029 | inactive: -0.025 | inactive: -0.137 | inactive: -0.012 | inactive: -0.005 | inactive: -0.042
10 | LZTS2 (UniProt Q9BRK4) | inactive: -0.06 | inactive: 0.051 | inactive: -0.015 | – | inactive: -0.019 | – | inactive: 0.127 | inactive: 0.038 | inactive: -0.119 | – | inactive: 0.026 | inactive: -0.075 | inactive: 0.007 | inactive: 0.062 | inactive: -0.03 | inactive: 0.006 | inactive: -0.06 | inactive: -0.014 | inactive: 0.093 | inactive: 0.062
11 | MAPK14 isoform 2 (UniProt Q16539) | inactive: -0.008 | inactive: -0.054 | inactive: -0.028 | inactive: 0.222 | inactive: -0.026 | inactive: -0.086 | inactive: 0.001 | – | inactive: 0.765 | inactive: -0.122 | inactive: 0.523 | inactive: 0.041 | active: 0.879 | inactive: 0.037 | inactive: 0.033 | inactive: -0.031 | inactive: -0.039 | inactive: -0.035 | inactive: 0.076 | inactive: -0.018
12 | MAP4K5 (UniProt Q9Y4K4) | inactive: -0.035 | inactive: 0.044 | – | inactive: 0.013 | inactive: -0.021 | inactive: 0.055 | inactive: 0.152 | inactive: -0.04 | inactive: -0.046 | inactive: 0.112 | inactive: -0.035 | inactive: 0 | active: 0.528 | inactive: -0.007 | inactive: 0.105 | inactive: -0.245 | inactive: 0.082 | active: 0.468 | inactive: -0.029 | inactive: 0.11
13 | MAP4K4 isoform 3 (UniProt O95819) | inactive: -0.061 | inactive: -0.049 | – | inactive: 0.201 | inactive: 0.078 | inactive: -0.088 | inactive: 0.014 | inactive: 0.087 | inactive: 0.03 | inactive: -0.01 | inactive: -0.108 | inactive: 0.03 | inactive: -0.103 | inactive: 0.002 | inactive: 0.006 | inactive: -0.103 | inactive: 0.038 | active: 0.27 | inactive: 0.02 | inactive: -0.032
14 | MAD1L1 (UniProt Q9Y6D9) | inactive: 0.027 | inactive: 0.021 | inactive: 0.006 | inactive: -0.02 | inactive: -0.015 | inactive: 0.152 | inactive: -0.003 | inactive: 0.086 | inactive: -0.066 | inactive: 0.074 | inactive: -0.001 | inactive: 0.025 | inactive: 0.021 | inactive: -0.001 | inactive: -0.001 | inactive: -0.009 | inactive: -0.021 | inactive: -0.019 | inactive: 0.007 | inactive: 0.026
15 | MAGEB2 (UniProt O15479) | inactive: 0.006 | inactive: -0.039 | inactive: -0.022 | inactive: -0.016 | inactive: 0.042 | inactive: -0.011 | inactive: -0.026 | inactive: -0.017 | inactive: -0.055 | inactive: 0.052 | inactive: 0.024 | inactive: 0.027 | inactive: -0.022 | inactive: -0.007 | inactive: 0.027 | inactive: -0.03 | inactive: 0.018 | inactive: 0.041 | inactive: -0.005 | inactive: -0.023
16 | MANBA (UniProt O00462) | inactive: -0.009 | inactive: -0.033 | inactive: -0.015 | inactive: -0.048 | inactive: 0.024 | inactive: 0.097 | inactive: 0.093 | inactive: 0.01 | inactive: -0.075 | inactive: 0.06 | inactive: -0.032 | inactive: 0.001 | inactive: 0.007 | inactive: 0.005 | inactive: 0.022 | inactive: -0.034 | inactive: 0.007 | inactive: 0.037 | inactive: 0.016 | inactive: 0.004
17 | MAPRE3 isoform 2 (UniProt Q9UPY8) | inactive: 0.135 | inactive: -0.37 | inactive: -0.138 | inactive: 0.092 | – | inactive: 0.08 | – | inactive: 0.037 | inactive: 0.112 | inactive: -0.077 | – | – | – | – | – | inactive: -0.169 | – | inactive: 0.094 | inactive: 0.124 | inactive: -0.184
18 | MAP4 isoform 5 (UniProt P27816) | inactive: -0.089 | inactive: -0.008 | inactive: -0.034 | – | inactive: 0.159 | – | inactive: 0.008 | inactive: -0.061 | inactive: 0.081 | – | inactive: -0.168 | inactive: -0.029 | inactive: -0.371 | inactive: 0.291 | inactive: 0.029 | inactive: -0.036 | inactive: -0.101 | inactive: 0.03 | inactive: -0.02 | inactive: -0.213
